Only a part is listed here, and it is no random draw. The calls were merged from several studies; some rest on single wells.

These results are taken from the M2OR odorant receptor database.

Holding throughout (details): stereoisomer not certain
Test [1] addresses T1, OR2AG1 (Homo sapiens) (UniProt Q9H205).
T1 sequence (whole entry): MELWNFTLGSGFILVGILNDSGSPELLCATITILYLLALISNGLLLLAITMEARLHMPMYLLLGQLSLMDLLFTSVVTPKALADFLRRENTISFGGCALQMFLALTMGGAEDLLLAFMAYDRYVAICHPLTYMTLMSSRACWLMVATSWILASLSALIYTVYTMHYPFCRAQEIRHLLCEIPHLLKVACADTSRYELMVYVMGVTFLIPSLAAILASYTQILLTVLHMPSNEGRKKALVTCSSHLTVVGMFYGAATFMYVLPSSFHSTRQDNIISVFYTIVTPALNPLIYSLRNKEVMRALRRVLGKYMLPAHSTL
A digest of the protocol:
(§1)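 Whether a receptor–molecule pair is responsive (active) rests on the original authors' judgment that its measured signal was statistically different from baseline. Pairs without that judgment are non-responsive (inactive). Sources used varied assay methods, commonly transient luciferase assays in mammalian cell lines.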

Test [2] deals with T2, OR2AG2 (Homo sapiens) (UniProt A6NM03).
T2 sequence (whole entry): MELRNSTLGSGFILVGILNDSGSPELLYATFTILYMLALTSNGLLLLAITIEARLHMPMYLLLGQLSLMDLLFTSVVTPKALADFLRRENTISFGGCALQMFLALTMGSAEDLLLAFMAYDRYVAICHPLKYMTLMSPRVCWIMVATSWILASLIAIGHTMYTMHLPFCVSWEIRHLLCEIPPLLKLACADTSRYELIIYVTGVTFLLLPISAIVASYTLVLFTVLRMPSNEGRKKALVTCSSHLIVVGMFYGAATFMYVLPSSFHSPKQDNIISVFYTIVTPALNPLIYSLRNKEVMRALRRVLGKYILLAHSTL
A digest of the protocol:
as §1

In test [3] the target is T3, OR2AP1 (Homo sapiens) (UniProt Q8NGE2).
T3 sequence (whole entry): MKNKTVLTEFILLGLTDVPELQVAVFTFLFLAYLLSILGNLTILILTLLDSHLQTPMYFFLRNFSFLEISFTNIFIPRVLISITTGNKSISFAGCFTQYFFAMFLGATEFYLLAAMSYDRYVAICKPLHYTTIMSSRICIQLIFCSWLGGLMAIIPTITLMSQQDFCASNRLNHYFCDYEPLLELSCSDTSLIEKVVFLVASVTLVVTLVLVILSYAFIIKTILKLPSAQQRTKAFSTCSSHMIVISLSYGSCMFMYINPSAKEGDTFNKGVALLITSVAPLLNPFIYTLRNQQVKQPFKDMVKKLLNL
A digest of the protocol: as §1

In test [4] the target is T4, OR2AT4 (Homo sapiens) (UniProt A6NND4).
T4 sequence (whole entry): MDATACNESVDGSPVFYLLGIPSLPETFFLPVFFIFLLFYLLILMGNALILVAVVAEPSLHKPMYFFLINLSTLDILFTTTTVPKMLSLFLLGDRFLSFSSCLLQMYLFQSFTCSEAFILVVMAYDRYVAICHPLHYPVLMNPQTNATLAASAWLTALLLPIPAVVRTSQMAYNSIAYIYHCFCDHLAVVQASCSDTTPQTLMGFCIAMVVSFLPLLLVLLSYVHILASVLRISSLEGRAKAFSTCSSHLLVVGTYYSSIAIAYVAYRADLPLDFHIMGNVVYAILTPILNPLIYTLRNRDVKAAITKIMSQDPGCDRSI
Put shortly:
as §1

Test [5] deals with T5, OR2B11 (Homo sapiens) (UniProt Q5JQS5).
T5 sequence (whole entry): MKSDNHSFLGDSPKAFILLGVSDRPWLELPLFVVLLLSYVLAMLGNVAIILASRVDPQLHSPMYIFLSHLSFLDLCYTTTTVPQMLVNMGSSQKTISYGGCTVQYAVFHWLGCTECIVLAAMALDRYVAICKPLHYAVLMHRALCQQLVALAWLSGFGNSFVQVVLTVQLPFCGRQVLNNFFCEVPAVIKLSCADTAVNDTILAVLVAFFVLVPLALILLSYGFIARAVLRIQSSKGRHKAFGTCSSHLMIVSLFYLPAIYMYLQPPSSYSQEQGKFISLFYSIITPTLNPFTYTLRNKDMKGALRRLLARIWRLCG
A digest of the protocol: as §1

For test [6], the target named is T6, OR2B2 (Homo sapiens) (UniProt Q9GZK3).
T6 sequence (whole entry): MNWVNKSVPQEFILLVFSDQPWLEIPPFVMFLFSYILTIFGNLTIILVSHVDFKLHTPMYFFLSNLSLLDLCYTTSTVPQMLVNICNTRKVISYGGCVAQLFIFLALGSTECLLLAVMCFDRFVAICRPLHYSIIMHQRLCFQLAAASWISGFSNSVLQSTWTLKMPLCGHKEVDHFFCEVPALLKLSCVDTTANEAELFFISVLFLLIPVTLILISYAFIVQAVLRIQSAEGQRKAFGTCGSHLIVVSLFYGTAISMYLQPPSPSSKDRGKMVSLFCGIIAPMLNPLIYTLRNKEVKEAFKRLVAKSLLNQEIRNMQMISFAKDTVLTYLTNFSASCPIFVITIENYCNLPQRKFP
Put shortly: as §1

Test [7] deals with T7, OR2B3 (Homo sapiens) (UniProt O76000).
T7 sequence (whole entry): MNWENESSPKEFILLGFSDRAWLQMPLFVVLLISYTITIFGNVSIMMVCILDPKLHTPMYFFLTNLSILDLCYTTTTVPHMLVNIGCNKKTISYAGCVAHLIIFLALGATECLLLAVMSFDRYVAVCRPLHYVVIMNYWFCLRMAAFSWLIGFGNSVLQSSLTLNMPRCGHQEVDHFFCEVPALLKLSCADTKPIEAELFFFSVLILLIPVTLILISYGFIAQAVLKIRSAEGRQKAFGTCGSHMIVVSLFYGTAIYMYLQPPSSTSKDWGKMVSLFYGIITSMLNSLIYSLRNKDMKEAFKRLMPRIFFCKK
Put shortly:
as §1
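Note: active if original authors judged signal statistically different from baseline.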

With `CC=Cc1ccc(O)c(OC)c1`, the “odorant receptor agonist call” value in test [1], in test [2], in test [3], in test [5], in test [6] and in test [7] was “inactive” throughout. Further, the “odorant receptor agonist call” value in test [4] is “active”.
On to `CC1=CCC(C(C)(C)O)CC1` (configuration not stated), for which the “odorant receptor agonist call” value in test [1], in test [2], in test [3], in test [4], in test [5] and in test [6] was “inactive” each time. Besides, the “odorant receptor agonist call” value in test [7] is “inactive”.
Regarding `CC1=NC(C)SC1C` (configuration not stated), the “odorant receptor agonist call” value in test [1], in test [2], in test [3], in test [4], in test [5] and in test [6] was “inactive” in each case. Besides, the “odorant receptor agonist call” value in test [7] was “inactive”.
Take `C=CCc1ccc(OC)c(OC)c1`: the “odorant receptor agonist call” value in test [1], in test [2], in test [3], in test [4], in test [5] and in test [6] was “inactive” throughout. The “odorant receptor agonist call” value in test [7] is “inactive”.
Consider `CCC=CCCO`, for which the “odorant receptor agonist call” value in test [1], in test [2], in test [3], in test [4], in test [5] and in test [6] was “inactive” in each case. Moreover, the “odorant receptor agonist call” value in test [7] was “inactive”.
As for `CC12CCC(C1)C(C)(C)C2=O` (configuration not stated), the “odorant receptor agonist call” value in test [1], in test [2], in test [3], in test [4], in test [5] and in test [6] was “inactive” each time. Moreover, the “odorant receptor agonist call” value in test [7] is “inactive”.
